Test results taken from patent US20160339110A1.
No constants are given. Whether binding was seen depends on the method and setting. Some results given as binding are weak or reduced against the parent protein; the word gives no strength.

Amino acid sequences for entries named in this document (tags omitted). Residues count along the entry.
UniProt Q99376, residues 87-761: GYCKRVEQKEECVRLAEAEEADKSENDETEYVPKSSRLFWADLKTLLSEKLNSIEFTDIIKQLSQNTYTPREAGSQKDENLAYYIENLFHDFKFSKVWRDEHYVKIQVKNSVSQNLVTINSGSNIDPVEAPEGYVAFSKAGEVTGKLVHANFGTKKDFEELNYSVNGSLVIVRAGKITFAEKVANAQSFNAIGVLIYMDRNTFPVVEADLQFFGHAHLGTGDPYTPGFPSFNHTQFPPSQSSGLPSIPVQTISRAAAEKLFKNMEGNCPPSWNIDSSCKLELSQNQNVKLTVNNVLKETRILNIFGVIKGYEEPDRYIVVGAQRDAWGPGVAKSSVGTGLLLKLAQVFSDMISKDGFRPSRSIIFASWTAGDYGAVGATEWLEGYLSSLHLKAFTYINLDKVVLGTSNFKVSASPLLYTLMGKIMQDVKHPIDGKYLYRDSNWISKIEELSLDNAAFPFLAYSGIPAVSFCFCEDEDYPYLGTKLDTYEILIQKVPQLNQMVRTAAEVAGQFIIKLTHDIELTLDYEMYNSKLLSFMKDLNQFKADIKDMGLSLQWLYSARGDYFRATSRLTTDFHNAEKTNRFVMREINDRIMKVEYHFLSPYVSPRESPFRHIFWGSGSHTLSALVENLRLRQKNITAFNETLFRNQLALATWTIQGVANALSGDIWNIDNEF

Legend:
[1] = target: ectodomain of rat TfR1 (rat) (UniProt Q99376); test: ELISA
[2] = target: ectodomain of rat TfR1 (rat) (UniProt Q99376); test: ELISA, plate coated with 5 ug/ml ectodomain of TfR1, detection with HRP-conjugated protein L

binding [1] | binding [2] | Binder
binds | – | tetrazine-conjugated scFv specific for TfR1 (scFv, C-terminal cysteine conjugated with Mal-PEG4-tetrazine) scFv: DIVITQSPSSLSASLGDTILITCHASQNINVWLSWFQQKPGNAPKLLIYKASNLHTGVPSRFSGSGSGTGFTLTISSLQPEDIATYYCQQGQSYPWTFGGGTKLEIKRGSTSGSGKPGSGEGSTKGQVQLQQPGAALVRPGASMRLSCKASGYSFTTYWMNWVKQRPGQGLELIGMIHPSDSEVRLNQKFKDKATLTVDTSSSTAYMQLNSPTSEDSAVYYCARFGLDYWGQGTTLTVSSGGGGSGGGGSC
binds | binds | scFv of mAb specific for ectodomain of TfR1 (VL and VH from monoclonal antibody OX26) (scFv) scFv: DIVITQSPSSLSASLGDTILITCHASQNINVWLSWFQQKPGNAPKLLIYKASNLHTGVPSRFSGSGSGTGFTLTISSLQPEDIATYYCQQGQSYPWTFGGGTKLEIKRGSTSGSGKPGSGEGSTKGQVQLQQPGAALVRPGASMRLSCKASGYSFTTYWMNWVKQRPGQGLELIGMIHPSDSEVRLNQKFKDKATLTVDTSSSTAYMQLNSPTSEDSAVYYCARFGLDYWGQGTTLTVSSGGGGSGGGGSC
